# Results of single-concentration screens

By UniProt entry, the sequences of proteins in these tests, tags left out. Residues count along the entry.
UniProt Q8IDJ8, 1-583: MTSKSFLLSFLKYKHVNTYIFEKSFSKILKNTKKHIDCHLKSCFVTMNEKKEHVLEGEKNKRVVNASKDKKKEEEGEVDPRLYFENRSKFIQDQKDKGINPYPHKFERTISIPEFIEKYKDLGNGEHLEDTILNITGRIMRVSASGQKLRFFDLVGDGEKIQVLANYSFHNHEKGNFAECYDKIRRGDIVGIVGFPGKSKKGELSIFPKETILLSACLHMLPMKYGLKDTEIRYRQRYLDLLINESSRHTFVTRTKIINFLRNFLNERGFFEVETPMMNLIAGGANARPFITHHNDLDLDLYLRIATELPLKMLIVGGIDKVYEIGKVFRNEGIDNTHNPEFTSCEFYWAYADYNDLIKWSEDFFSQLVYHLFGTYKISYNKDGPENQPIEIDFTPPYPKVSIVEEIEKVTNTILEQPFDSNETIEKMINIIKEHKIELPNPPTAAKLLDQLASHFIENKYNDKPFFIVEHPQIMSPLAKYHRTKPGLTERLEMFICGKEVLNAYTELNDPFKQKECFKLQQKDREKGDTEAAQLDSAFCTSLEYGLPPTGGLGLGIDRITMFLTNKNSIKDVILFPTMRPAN

Data taken from ChEMBL document CHEMBL3988442, “University of Dundee, Small-Polar-MMV Screening Library” (2021).

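Lysine-tRNA ligase, Plasmodium falciparum 3D7 (UniProt Q8IDJ8). Enzyme assay of the cytosolic lysyl-tRNA synthetase in 384-well plates, read by luminescence. Compounds at 30 µM. Direction is inferred from only a few compounds that gave an IC50; most scored high, so higher reads as stronger inhibition. About 69,000 compounds were tested under these conditions; 0.071% (about 49) showed 50% or more at least once.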

Results are given as percent effect. The controls that fix the scale are not given in the record; negative values are as filed. Compounds were drawn at random from those tested, without regard to their results.

structure | percent effect
Cc1cccc2c(CCNC(=O)[C@H](N)c3ccccc3)c[nH]c12 | 3.783%
COc1cc(C(=O)Nc2nc(C)no2)cc(OC)c1Br | -2.512%
Cn1cnc2c1C(COCc1cccnc1)N(Cc1ccccc1)CC2 (centres unmarked) | 6.022%
Cc1noc(C)c1CN1CCCC1c1c(C)nn(C)c1Cl (centres unmarked) | 1.085%
COc1cccc(CNCc2cccnc2-n2cccn2)c1OC | -4.135%
O=C(Cc1ccccn1)N1CCc2ncnc(NC3CCC3)c2CC1 | 6.817%
Cn1ccnc1CN1CCN(CC2CC2)[C@@H]2CS(=O)(=O)C[C@@H]21 | 1.793%
c1ccc(-c2cc(CNCCCC3CCOC3)c3nnnn3c2)cc1 (centres unmarked) | -1.436%
Cn1ccc2ccc(C(=O)N3CCN(C(=O)N4CCOCC4)CC3)cc21 | 2.741%
O=C(Cc1ccccn1)NCC1OCCc2cn(CC3CC3)nc21 (centres unmarked) | -3.945%
Cc1ccsc1C(O)CNC(=O)Cc1ccc(F)cc1 (centres unmarked) | 7.812%
CC(NC(=O)c1ccoc1)C(=O)N(C)Cc1ccsc1 (centres unmarked) | 8.367%
CN(CCn1ccnc1-c1ccccn1)S(C)(=O)=O | 0.1451%
CCc1nnc(SCC(=O)Nc2cc(C(C)(C)C)nn2C)[nH]1 | 8.249%
Cn1cc(-c2cnc(N3CCOCC3)nc2)cc1C(=O)NC1CC1 | -0.4254%
Cc1ccc(C(=O)N2CCCC(c3cc(C(F)(F)F)[nH]n3)C2)o1 (centres unmarked) | 0.29%
CN(Cc1nnc2n1CCC2)S(=O)(=O)c1cc(Br)ccc1Br | 1.727%
CCS(=O)(=O)N1CCC(c2nccn2Cc2ccncc2)CC1 | 2.885%
Cc1nccn1[C@@H]1CC[C@@H](N(C)S(=O)(=O)c2ccccc2F)[C@H]1O | 2.27%
CCOC(=O)[C@@H]1[C@@H](c2ccccc2)CN2CCN(C(C)=O)C[C@H]12 | 2.468%
Cc1cc(C)nc(N2CCCC(C(=O)Nc3n[nH]c(C(C)C)n3)C2)n1 (centres unmarked) | 6.754%
CN(C)c1ncc(-c2cc(C(=O)NCCC#N)n(CC3CC3)c2)cn1 | 3.747%
COCC1CC2(CCN(CC3CC3)CC2)CN1c1ncccn1 (centres unmarked) | 1.199%
O=C(Nc1ccccn1)C1CCN(Cc2cccc3c2OCCO3)CC1 | -1.143%
Cn1cc(CCNC(=O)NC2CCN(Cc3ccccn3)CC2)cn1 | -4.204%
CCN(CC)S(=O)(=O)CC(=O)Nc1ccsc1 | 3.557%
CCCOc1ncccc1CNc1nnc(C)c(C)c1C#N | 0.2158%
CCCC1c2cccn2CCN1C(=O)Cn1cnc2sc(C)cc2c1=O (centres unmarked) | 1.613%
Cc1nc(NC(=O)C2CCCN(C(=O)C3CC3)C2)sc1C (centres unmarked) | 3.105%
CN1CCN(C(=O)C2CCCN2c2ncnc3ccsc23)CC1 (centres unmarked) | 1.419%
CN(Cc1ccccc1)CC(O)Cn1cnc2ccc(Br)cc2c1=O (centres unmarked) | 2.389%
Cc1ccc(F)cc1S(=O)(=O)NCc1cccc(CS(C)(=O)=O)c1 | 2.157%
CNC(=O)CCc1cc(C)nc(C2CCN(C3CCCCC3)CC2)c1 | 2.15%
CCN1CCN(Cc2nc(C)no2)CC1 | 0.8788%
O=S(=O)(NCC1CCN(c2cnccn2)CC1)c1c(F)cccc1F | -1.308%
CCc1nc(CNCC2(C(N)=O)CCOCC2)cs1 | 3.06%
Cc1nc(C)c(S(=O)(=O)NC(=O)c2ccoc2)s1 | -1.121%
CC(=O)N(C)C1CCN(c2ncc3c(n2)CCN3c2ccccc2)C1 (centres unmarked) | 3.69%
Cc1cc(CN2CCC(CNC(=O)C3(c4ccccc4)CC3)C2)[nH]n1 (centres unmarked) | 3.64%
O=C(Cc1cc2c(cc1Cl)OCCO2)N1CC[C@H](CO)[C@H](O)C1 | 3.676%
COCCN(Cc1ccc(F)cc1Cl)C(=O)c1cc(C)no1 | 5.023%
O=C(O)c1cnc2c(cnn2C2CCCC2)c1 | -1.695%
Cc1noc(C)c1NS(=O)(=O)c1cc(Cl)c(Cl)c(C(=O)O)c1 | 3.133%
CC(C)c1nccn1C1CCCN(C(=O)c2cnc[nH]2)C1 (centres unmarked) | 1.245%
COCCN(C)CC1CCCN1S(=O)(=O)Cc1ccccc1F (centres unmarked) | -3.834%
Cc1c(NC(=O)N(C)CCO)cccc1OC1CCCC1 | 2.393%
Cc1nc(C)c(C(=O)N2CCc3nnc(C4CCCN4C)n3CC2)s1 (centres unmarked) | -0.5471%
CNC(=O)[C@@H]1C[C@H]2CN(Cc3ccc(C)o3)C[C@H]2N1C(C)=O | 1.165%
O=C(CCc1cscn1)N1CCCC1c1noc(C2CC2)n1 (centres unmarked) | 4.383%
Cc1cccc(-c2c[nH]c(C3CCCN3C(=O)c3cc(C)n[nH]3)n2)c1 (centres unmarked) | 3.677%
CC(=O)NCCC(=O)NCc1ccc(Br)cc1Cl | 7.334%
CCN(C(C)=O)c1nc(CN2CCCCC2Cn2cncn2)cs1 (centres unmarked) | 1.314%
O=C1CC[C@@H]2[C@@H](CCN2S(=O)(=O)C2CC2)N1CC1CC1 | 0.468%
Cc1ccsc1CN1C[C@@H]2CN(Cc3cccnc3)CCO[C@@H]2C1 | -4.818%
CN(c1ccc(CNC(=O)c2c[nH]c(=O)c(Cl)c2)cc1)C1CCCCC1 | 11.57%
CCOc1cc(C(=O)N2CC=C(c3ccc(O)cc3)CC2)ccn1 | -0.6298%
O=C(C1CCOC1)N1CCC2(CCNCC2)C1 (centres unmarked) | 0.2529%
Cc1nc(C)n(CC2CCCN2Cc2nc3ccccc3n2C)n1 (centres unmarked) | 2.811%
COc1cccc(C(=O)N2CCc3ncnc(C)c3CC2)c1 | -1.086%
Cc1ccccc1CSc1ncccc1C(=O)N(C)C | 1.06%
COc1cc(Cl)c(C)cc1-n1nnc(C(=O)O)c1C | 2.043%
Cc1noc(CS(=O)(=O)CC(=O)NC(C)c2ccccc2)n1 (centres unmarked) | 6.769%
O=C(c1ccc(-n2cccn2)c(F)c1)N1CCCN2CCCC2C1 (centres unmarked) | 2.376%
COCCN1CCC12CCN(C(=O)c1ccc3[nH]ccc3c1)C2 (centres unmarked) | -0.5981%
CCN(CC)c1ncc(CNCC2CCCn3ccnc32)s1 (centres unmarked) | -1.881%
COCCC(C)NC(=O)N1CCSC(C)(C)C1 (centres unmarked) | 3.494%
COc1ccc(OCc2nc(C(=O)N3C[C@H](O)[C@@H](N(C)C)C3)co2)cc1 | -1.311%
CCCOC1CCCN(c2nc(CC)nc3c2cnn3C)C1 (centres unmarked) | 1.991%
Cc1ccc(F)cc1C(=O)N1CCN(S(C)(=O)=O)[C@@H](C)C1 | 1.283%
COc1ccccc1C(=O)N(C)Cc1ncc(C)c(OC)c1C | 2.6%
CC(CN1CCC2(CC1)N=C(c1cccnc1)NC2=O)c1ccccc1 (centres unmarked) | 0.9407%
CNC(=O)NC(=O)C(NCc1cccs1)c1ccccc1 (centres unmarked) | 1.069%
CC(=O)N(C)CC(=O)Nc1cnc(-n2ccnc2C)nc1 | 3.497%
CCOC(C)c1noc(CN2CCNCC2)n1 (centres unmarked) | -0.6216%
CC(C)NC(=O)CCN1CCC(C(=O)c2cc(F)ccc2F)CC1 | 0.5554%
O=C1C(NCc2nnc3n2CCCC3)CCN1CC(F)(F)F (centres unmarked) | -0.3517%
COCCN1CCN(S(=O)(=O)C2CC2)Cc2ccc(C)nc21 | 9.109%
Cc1ccc(NCc2ccc(C#N)cc2)cc1-n1cnnn1 | 1.533%
CCC(C)N(CCOC)Cc1nc2c(cnn2C)c(=O)[nH]1 (centres unmarked) | -1.426%
CO[C@@H]1CN(c2ccccc2)S(=O)(=O)[C@@]12CCN(C(=O)N(C)C)C2 | 1.405%
Cc1cnc(CN2CC=C(c3c[nH]c4ncccc34)CC2)o1 | 8.455%
Cc1nc(C)n(C2CCCN(C(=O)c3cc(C4CC4)on3)C2)n1 (centres unmarked) | 0.5689%
COc1ncccc1CN1CCC2(CC1)CC(OCC1CC1)CO2 (centres unmarked) | 3.962%
Cc1ccccc1CN1CCN(C(=O)CN2CCOC2=O)CC1 | 1.655%
Cc1noc([C@@H]2C[C@H]3CN(C(=O)C4CCN(C)CC4)C[C@H]3O2)n1 | 1.811%
Cn1ncnc1CNc1ccccc1C(=O)NC(C)(C)C | 3.849%
Cc1cccc(N2CCN(CCS(=O)(=O)c3ccc(Br)cc3)CC2)c1C | -1.661%